Laboratory results published in PubChem BioAssay AID504467 (National Center for Advancing Translational Sciences (NCATS), 2011).
The whole screen tested about 330,000 compounds, of which about 7,700 (2.3%) were called active. This list was built around the results that the source calls inconclusive (neither active nor inactive); the mix of calls is not that of the screen. The call rests on the fitted dose curve; in most records, active means well fitted inhibition curve with a large enough effect; inconclusive means small, poorly fitted or top-dose-only effect, or effect the other way; inactive means flat fitted curve, though single readings scatter. Where the call is inconclusive, the potency comes from a doubtful curve fit.

Assay: qHTS screen for small molecules that inhibit ELG1-dependent DNA repair in human embryonic kidney (HEK293T) cells expressing luciferase-tagged ELG1; further: nearly all actives have a fitted effect of over 55% in size
Settings: HEK293T ELG1-luciferase reporter, luminescence, 16 h, DNA damage induced by 5-fluorouridine; activity change, negative = inhibition: at 46.1 µM (top of the series)
From the text: NIH Molecular Libraries Probe Production Network [MLPCN] NIH Chemical Genomics Center [NCGC] MLPCN Grant: 1 R03 MH092164-01 Assay Provider: Kyungjae Myung, NHGRI, NIH Keywords: MLPCN, qHTS, NCGC, genotoxicity, cancer Assay Overview: Cancer cells divide rapidly compared to normal cells in the body. During cell division, cancer cells need to duplicate their genome by DNA replication. The failure of genome duplication leads to cancer cells' death. Therefore, inhibitors of DNA replication could specifically kill cancer cells. Based on this concept, many chemotherapeutic agents were developed and have been used to treat cancer patients. However, there are a limited number of agents available in the clinical setting, and some of those that do exist have low efficacy and severe side effects. Therefore, if we can find the compounds that effectively block DNA replication either by directly damaging DNA or by inhibiting other cellular mechanisms, the options for cancer treatment will be broadened. With this in mind, we developed a quantitative high-throughput ELG1-luciferase reporter gene assay. Small molecules that specifically block ELG1 function in response to DNA damage can be identified by monitoring the suppression of luciferase activity. Since ELG1 defines a pathway for repairing DNA damage, agents blocking ELG1 function can be used to sensitize cancer cells to chemotherapeutic agents whose mechanism of action involves the induction of DNA damage.
Assay Protocol Summary: For genotoxicity screening, 2,000 cells in 4 uL/well were dispensed into white, solid-bottom 1536-well plates using a solenoid-based dispenser. Following transfer of 1 uL 5-Fluorouridine and 23 nL compound or DMSO vehicle by a pin tool, the plates were incubated 16 hr at 37 °C and 5% CO2. 5 ul ONE-Glo (Promega) was then added to each plate and following a 30 min incubation at room temperature, luciferase activity was quantified on a ViewLux CCD-based plate reader.
On the % scale 0 is the no-effect control and ±100 the full control effect; potency means the concentration at half of the fitted maximal effect.

Which Potency does the source give for `O=C(CCc1nnc(CCCc2ccccc2)o1)N1CCCCCC1` here?
The Potency was inconclusive: 16.4 µM [activator, partial curve].

For `CN1CCN(CCCNC(=O)c2cc3c(=O)n(C)c4ccccc4c3s2)CC1`, which Potency is on record?
Its Potency is inconclusive: 14.6 µM [activator, partial curve, poor fit].

Which “activity change, negative = inhibition” value does the source give for `O=C(Nc1ccc(Cl)cn1)c1ccccc1SCc1ccccc1` here?
The value was inactive: -14.1%.

With `O=C(NCc1cccs1)C1CC(c2ccc(F)cc2)=NO1` (stereo not given) as the compound, how does the Potency read?
Its Potency is inconclusive: 25.9 µM [activator, partial curve].

For `O=C(Nc1ccc(Cl)cc1)Nc1ccccn1`, which Potency is on record?
Its Potency is inconclusive: 1 µM [activator, full curve].

Which Potency does the source give for `O=C(O)c1ccccc1SCC(=O)N1CCc2ccccc21` here?
Its Potency is inconclusive: 18.3 µM [activator, partial curve].

With `Cc1cccc(Oc2cc(NC(=O)c3ccccc3)cc([N+](=O)[O-])c2)c1` as the compound, how does the Potency read?
Its Potency is inconclusive: 25.9 µM [inhibitor, single point].

Which Potency does the source give for `O=C(Nc1ccc(Cl)cn1)c1ccc(COc2ccccc2Br)o1` here?
The Potency was inconclusive: 18.3 µM [activator, partial curve].

For `Cn1c(Sc2ccccc2Cl)c(C=O)c2ccccc21`, which Potency is on record?
The Potency was inconclusive: 29.1 µM [inhibitor, single point].

For `COc1ccc(N2C(=O)c3ccccc3NC2c2ccc(OC)c(Cn3cc([N+](=O)[O-])cn3)c2)cc1` (stereo not given), which Potency is on record?
The Potency was inconclusive: 13 µM [activator, partial curve].

With `Cc1cc(C)c(NC(=O)CNC(=O)COC(=O)Cc2ccccc2C)c(C)c1` as the compound, how does the Potency read?
Its Potency is inconclusive: 16.4 µM [inhibitor, partial curve, poor fit].

For `Nc1nonc1-n1nnc(C(=O)N/N=C/c2ccc(O)cc2)c1COc1ccc(F)cc1`, which “activity change, negative = inhibition” value is on record?
The value was inactive: -15%.

For `CC(C)c1ccccc1NC(=S)N1CCN(S(=O)(=O)c2cccs2)CC1`, which “activity change, negative = inhibition” value is on record?
Its value is inactive: 6.22%.

For `COCCCNc1nc2c(-c3ccc(C)cc3)nnn2c2ccccc12`, which “activity change, negative = inhibition” value is on record?
Its value is inactive: 0%.

Which Potency does the source give for `Cc1ccnc(NC(=O)c2cccc(S(=O)(=O)N3CCN(c4ccc(F)cc4)CC3)c2)c1` here?
Its Potency is inconclusive: 29.1 µM [inhibitor, single point].

With `Cc1ccc(N2C(=O)N(CC(=O)Nc3ccc(F)c(F)c3)C(=O)C2C)cc1` (stereo not given) as the compound, how does the Potency read?
Its Potency is inconclusive: 2.31 µM [activator, partial curve, poor fit].

Which Potency does the source give for `Cc1cccc[n+]1CC(=O)c1ccc2c(c1)OCCO2` here?
The Potency was inconclusive: 18.4 µM [activator, partial curve, poor fit].

With `O=C(CN1C(=O)S/C(=C/c2ccc(N3CCOCC3)cc2)C1=O)N1CCOCC1` as the compound, how does the Potency read?
Its Potency is inconclusive: 14.6 µM [activator, partial curve].

Which “activity change, negative = inhibition” value does the source give for `COc1cc(C(=O)Nc2ccc(C#N)cc2)c([N+](=O)[O-])cc1OC` here?
Its value is inactive: 1.57%.

For `COc1ccc(CNC(=O)CN(C(=O)c2csnn2)c2ccc(C(C)=O)cc2)cc1`, which Potency is on record?
Its Potency is inconclusive: 18.3 µM [activator, single point].

For `CN(Cc1ccccc1F)C(=O)C(Cc1ccccc1)NC(=O)c1ccccc1` (stereo not given), which Potency is on record?
Its Potency is inconclusive: 29.1 µM [inhibitor, single point].

With `CC(=O)Nc1cc(C(=O)OCC(=O)c2ccc(C)cc2)ccc1C` as the compound, how does the Potency read?
The Potency was inconclusive: 16.4 µM [activator, partial curve].

For `CCn1c(C(O)c2ccc(C)cc2)nc2ccccc21` (stereo not given), which Potency is on record?
The Potency was inconclusive: 11.6 µM [inhibitor, partial curve, poor fit].

With `COc1cc(OC)cc(C(=O)NCC(=O)N2CCCCC2)c1` as the compound, how does the Potency read?
Its Potency is inconclusive: 23.1 µM [activator, partial curve, poor fit].

Which Potency does the source give for `COc1ccccc1C1=NC(c2ccc(C)cc2)N=C1C` (stereo not given) here?
The Potency was inconclusive: 7.3 µM [activator, partial curve].

For `CC1CCCN(C(C(=O)Nc2ccc3c(c2)OCCO3)c2ccccc2)C1` (stereo not given), which “activity change, negative = inhibition” value is on record?
Its value is inactive: 4.38%.

For `CS(=O)(=O)c1ccc2nc(NC(=O)C3C4C=CC(C4)C3C(=O)O)sc2c1` (stereo not given), which Potency is on record?
Its Potency is inconclusive: 20.6 µM [activator, single point].

Which “activity change, negative = inhibition” value does the source give for `COc1ccc(Nc2ccccc2NC(=O)c2ccccc2Br)cc1` here?
The value was inactive: -6.94%.

For `COc1ccccc1N1C(N)=NC(N)=NC1(C)C`, which “activity change, negative = inhibition” value is on record?
The value was inactive: -10.1%.

Which Potency does the source give for `O=C(N/N=C/c1cc(Cl)ccc1O)c1ccncc1` here?
Its Potency is active: 14.6 µM.

With `O=C(N/N=C1\CCCc2ccccc21)c1ccc([N+](=O)[O-])cc1` as the compound, how does the Potency read?
Its Potency is inconclusive: 9.2 µM [activator, partial curve].

For `Cc1ccc(CSc2nnc(-c3ccccn3)n2N)cc1`, which Potency is on record?
Its Potency is inconclusive: 16.4 µM [activator, partial curve].

For `Cc1cc(NC2CCCC2)n2nc(C)c(-c3ccccc3)c2n1`, which “activity change, negative = inhibition” value is on record?
Its value is inactive: 0.601%.

With `Cc1ccc(OCC(=O)Nc2cc(C(C)(C)C)on2)cc1C` as the compound, how does the Potency read?
Its Potency is inconclusive: 16.4 µM [inhibitor, single point].

Which Potency does the source give for `Cc1nc(SCC(=O)Nc2nccs2)c(C#N)c(C)c1C` here?
The Potency was inconclusive: 0.092 µM [activator, full curve, poor fit].

Which Potency does the source give for `Cc1cc(-c2csc(Nc3ccccn3)n2)ccc1F` here?
The Potency was inconclusive: 2.59 µM [activator, full curve].

With `Cc1nc([N+](=O)[O-])cn1CC(=O)c1ccc(Br)cc1` as the compound, how does the “activity change, negative = inhibition” value read?
The value was inactive: 12.6%.

For `CN(C)CCn1c2c(c(SCC(=O)Nc3ccc4c(c3)OCCO4)nc1=O)CCCC2`, which “activity change, negative = inhibition” value is on record?
Its value is inactive: 15.3%.

With `O=C(OCC(=O)N1CCN(C(=O)c2ccco2)CC1)c1cc(-c2ccccc2)nc2ccccc12` as the compound, how does the Potency read?
Its Potency is active: 14.6 µM.

With `CCS(=O)(=O)c1ncc(Cl)c(C(=O)Nc2ccc(S(=O)(=O)N3CCCC(C)C3)cc2)n1` (stereo not given) as the compound, how does the Potency read?
Its Potency is inconclusive: 29.1 µM [inhibitor, single point].

For `CCn1c(N2CCN(S(=O)(=O)c3ccc(OC)cc3)CC2)nc2ccccc21`, which Potency is on record?
Its Potency is inconclusive: 29.1 µM [inhibitor, single point].

Which Potency does the source give for `Cc1cccc(OCCCC(=O)Nc2ccc(Cl)c(S(=O)(=O)N3CCOCC3)c2)c1` here?
The Potency was inconclusive: 18.3 µM [inhibitor, partial curve].

For `CC1CCN(CCCOc2ccc(OCc3ccccc3)cc2)CC1`, which “activity change, negative = inhibition” value is on record?
Its value is inactive: 28.6%.

With `Cc1ccccc1N=C1Nc2ccccc2CS1` as the compound, how does the Potency read?
The Potency was inconclusive: 2.06 µM [activator, full curve].

With `COC(=O)c1c(NC(=O)CN2C(=O)C(=O)N(CC(C)C)C2=O)sc(C)c1C` as the compound, how does the “activity change, negative = inhibition” value read?
Its value is inactive: -15.3%.
